Reference: PubChem BioAssay AID2685 (National Center for Advancing Translational Sciences (NCATS), 2010)
Some of the results follow. These are further read-outs of the screen, such as a control signal, another cell line or another target. No call is given for them. The list favours compounds with an active or inconclusive main result. Potencies come from curve fits of mixed quality, noted in brackets.

Test: qHTS Assay for Lipid Storage Modulators in Drosophila S3 Cells;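 on cell number change: cells counted by Cell Tracker Red CMTPX staining in the red channel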
Conditions: BODIPY lipid droplet fluorescence, 18-24 h; for cell number change: measured here: cell count max response, cells fed with added oleic acid
In short: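 Drosophila S3 cells loaded with oleic acid (400 uM, as added) and compounds at several concentrations; lipid droplets imaged by 488-nm laser-scanning cytometry, 500–530 nm intensity and object ratio to cell channel. Percent activity normalized to 20 uM Triacsin C.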

[1] = measured here: lipid fluorescence (Fed channel) AC50, cells fed with added oleic acid
[2] = measured here: cell number channel AC50, cells fed with added oleic acid

| Compound | cell number change [%] | AC50 [1] | AC50 [2] |
| --- | --- | --- | --- |
| CC(=O)OCC(=O)[C@H]1CC[C@H]2[C@@H]3CC[C@H]4C[C@H](O)CC[C@]4(C)[C@H]3C(=O)C[C@]12C | 9.99 | 0.164 µM [rising, full curve, poor fit] | – |
| Fc1ccc2c(c1)nnn2C1CCN(Cc2nnnn2C2CCCCC2)CC1 | -24.5 | 0.82 µM [falling, single point] | – |
| COC(=O)C1=C(c2cccc(C#N)c2)C[C@@H]2CC[C@H]1N2C(=O)NCc1cccc2ccccc12 | 14.3 | 0.0326 µM [rising, partial curve, poor fit] | – |
| O=c1[nH]c(CN2CC=C(c3ccccc3)CC2)nc2scc(-c3cccs3)c12 | 10.2 | 6.51 µM [falling, single point] | 6.51 µM [falling, single point] |
| CC(=O)c1cccc(OCC(=O)N2CCN(CC(=O)Nc3cccc(F)c3)CC2)c1 | -32.6 | 2.59 µM [rising, full curve] | 10.3 µM [falling, partial curve] |
| CCn1c(O)c(/C=N/NC(=O)c2ccncc2)c(=O)[nH]c1=S | 133 | 18.4 µM [rising, partial curve, poor fit] | 16.4 µM [rising, single point] |
| CCOC(=O)c1c(C)n(Cc2ccco2)c2ccc(OC)cc12 | -37.3 | – | 0.92 µM [falling, full curve] |
| CC[C@@]1(O)C(=O)OCc2c1cc1n(c2=O)Cc2cc3c(NC(=O)CN)cccc3nc2-1 | 11.8 | 0.231 µM [rising, full curve, poor fit] | – |
| CC/C(=N\NC(=O)c1ccccc1)c1c(O)n(C2CCCCC2)c(=O)[nH]c1=O | -13.1 | 29.1 µM [falling, single point] | – |
| Cc1c2ccncc2c(C)c2c1[nH]c1ccccc12 | -40.4 | 18.4 µM [falling, partial curve, poor fit] | 11.6 µM [falling, partial curve] |
| CN1C(=O)C(=Cc2ccc(N3CCOCC3)c([N+](=O)[O-])c2)C(=O)N(C)C1=O | 104 | – | 18.4 µM [rising, single point] |
| O=C(N/N=C/c1c(O)n(C2CCCCC2)c(=S)[nH]c1=O)c1ccccc1O | -8.4 | 0.82 µM [falling, full curve] | – |
| C=CCn1c(O)c(/C=N/N2CCOCC2)c(=O)[nH]c1=S | -28.7 | 6.51 µM [falling, single point] | – |
| O=C1NC(=O)N(CCC2=CCCCC2)C(=O)/C1=C/c1cccs1 | -12.5 | 0.92 µM [falling, full curve, poor fit] | – |
| O=C(CN1CCN(c2ccccc2F)CC1)Nc1cccnc1Cl | -14.1 | 23.1 µM [falling, single point] | – |
| O=C(COc1ccccc1)NCCc1cnc[nH]1 | 24.6 | 2.06 µM [rising, single point] | – |
| Cc1ccc2c(c1)C1CN(C)CCC1N2C(=O)c1cn(-c2ccccc2)nc1-c1ccccc1 (stereo not given) | 20.1 | 0.116 µM [falling, full curve, poor fit] | – |
| C=Cn1ccnc1P(=S)(c1nccn1C=C)c1nccn1C=C | -33.7 | 3.66 µM [falling, partial curve, poor fit] | 6.51 µM [falling, partial curve, poor fit] |
| O=P(O)(O)COc1ccccc1O | 0.746 | – | – |
| CCOC(=O)C(O)(c1ccc(NC(=O)c2ccc(Cl)c(Cl)c2)cc1)C(F)(F)F (stereo not given) | -34.8 | 29.1 µM [falling, single point] | 32.6 µM [falling, single point] |
| COc1ccc(-n2c(/C=C/c3ccc(O)c(OC)c3)nc3ccccc3c2=O)cc1 | -34.4 | 29.1 µM [falling, single point] | 18.4 µM [falling, partial curve] |
| CCCCn1c(=O)c(C(=O)Nc2ccccc2S(N)(=O)=O)c(O)c2ccccc21 | -20.6 | 11.6 µM [rising, partial curve] | – |
| CCC(=NCCc1ccccc1)c1c(O)n(C)c(=O)n(C)c1=O | 15.6 | 0.517 µM [rising, partial curve] | – |
| COc1cccc(C(=O)C2CCCN(Cc3ccc(F)cc3)C2)c1 (stereo not given) | – | 29.1 µM [rising, single point] | – |
| N#CC[N+]1(CCCNP2(=O)C=C(c3ccccc3)OC(c3ccccc3)=C2)CCOCC1 | -25.6 | 1.16 µM [falling, full curve, poor fit] | 1.64 µM [falling, partial curve] |
| COC(=O)C1=Nc2ccccc2/C1=C\c1c(O)n(C)c(=O)n(C)c1=O | – | 0.0731 µM [rising, full curve, poor fit] | – |
| COc1cc(/C=C2\C(=O)NC(=O)N(c3ccccc3)C2=O)c([N+](=O)[O-])cc1OC | -10.4 | – | – |
| CCCCc1ccc2[nH]cc(CCN)c2c1 | -8.45 | – | 0.259 µM [falling, full curve, poor fit] |

| Compound | cell number change [%] | AC50 [1] | AC50 [2] |
| --- | --- | --- | --- |
| O=C(c1ccc(CNS(=O)(=O)c2ccccc2)cc1)N1CCC2(CC1)OCCO2 | 7.85 | – | – |
| c1ccc(C2OCCN3CCCCC23)cc1 (stereo not given) | 3.12 | 5.17 µM [falling, full curve, poor fit] | – |
| CCOC(=O)c1ccc(N2C(=O)CC(N3CCC(C#N)(c4ccccc4)CC3)C2=O)cc1 (stereo not given) | – | 6.51 µM [rising, single point] | 3.26 µM [rising, single point] |
| O=C(O)COc1ccccc1 | 13.9 | 0.651 µM [rising, full curve, poor fit] | – |
| CC(=O)Nc1ccc(C(=O)OCC(=O)Nc2ccc(Cl)cc2C(=O)c2ccccc2)cc1 | 44.3 | 0.517 µM [rising, partial curve] | 1.46 µM [rising, full curve] |
| COc1cccc(-c2cc(C(F)(F)F)n3nc(C(=O)N4CCC5(CC4)OCCO5)cc3n2)c1 | – | 6.51 µM [rising, single point] | 6.51 µM [rising, single point] |
| CC/C(=N\Nc1ccccc1)c1c(O)n(-c2ccccc2)c(=O)[nH]c1=O | 1.31 | 0.58 µM [rising, full curve] | – |
| O=C1c2ccccc2C(=O)N1Cc1nc2ccccc2c(=O)n1-c1ccccn1 | 8.02 | 7.31 µM [rising, partial curve, poor fit] | – |
| CC(=O)Oc1ccccc1C(=O)Nc1ncc([N+](=O)[O-])s1 | – | – | 23.1 µM [falling, single point] |
| COC(=O)C1=C(c2ccc(F)cc2F)C[C@@H]2CC[C@H]1N2C(=O)NCCNC(C)=O | 14.6 | 0.184 µM [rising, full curve, poor fit] | – |
| Clc1ccc2c(c1)C(c1ccccc1Cl)=NCc1nnc(N3CCN(CCSc4ccccc4)CC3)n1-2 | – | 0.461 µM [rising, partial curve, poor fit] | – |
| COc1ccc(CC(=O)N2CCN(C)CC2)cc1OC | -34.6 | – | 4.11 µM [falling, full curve, poor fit] |
| CCC(C)(C)n1nnnc1C(c1cccs1)N1CC=C(c2ccc(F)cc2)CC1 (stereo not given) | -16.1 | 0.92 µM [rising, full curve, poor fit] | – |
| COc1ccc(OCC(=O)N2CCN(CC3CC4C=CC3C4)CC2)cc1 (stereo not given) | 18.8 | – | – |
| COc1cc2c(c(OC)c1OC)-c1ccc(O)c(=O)cc1[C@@H](N)CC2 | -31.4 | 0.651 µM [falling, full curve, poor fit] | 0.461 µM [falling, full curve, poor fit] |
| CCN(CC)c1ccc(N=Cc2c(O)n(-c3ccc(Cl)cc3)c(=O)[nH]c2=O)cc1 | 1.3 | – | – |
| Cc1cc(OCC(=O)N[C@H](C(=O)O)c2ccccc2)c2c3c(c(=O)oc2c1)CCC3 | 5.5 | – | – |
| COC(=O)C1=C(c2ccc(F)cc2OCc2ccccc2)C[C@@H]2CC[C@H]1N2C(=O)NC(C)C | -18.9 | – | – |
| CC(C)CCn1c(=O)c(C(=O)NCc2ccc3c(c2)OCO3)c(O)c2ccccc21 | -18.1 | 29.1 µM [rising, single point] | – |
| N=c1n(CCO)c2ccccc2n1Cc1ccccc1 | -15.7 | 0.651 µM [falling, full curve] | – |
| CCCC[N+]12CCC(CC1)C(Cc1ccccc1)C2 (stereo not given) | 2.81 | 4.61 µM [falling, single point] | 1.84 µM [falling, partial curve] |
| Cc1ccc(Sc2ccc(C=C3C(=O)N(C)C(=O)N(C)C3=O)o2)cc1 | 109 | – | – |
| C[C@@H]1C[C@H]2OC(=O)C3(CO3)[C@H]2[C@H](O)[C@]2(C)C(=O)C3OC3[C@@H]12 (stereo not given in full) | -39.6 | 10.3 µM [falling, partial curve, poor fit] | 13 µM [falling, partial curve, poor fit] |
| O=C1CC(c2cccnc2)=NN1c1ccccc1 | 52.4 | – | 14.6 µM [rising, single point] |
| CCOC(=O)c1c(NC(NC(=O)CF)C(Cl)(Cl)Cl)sc2c1CCCC2 (stereo not given) | -11.4 | 0.13 µM [falling, full curve, poor fit] | – |
| Cc1ccc2cc(CNCCc3ccccc3C)c(=O)[nH]c2c1 | -42.9 | – | 20.6 µM [falling, partial curve, poor fit] |
| CCOC(=O)C1=C(C)OC(N)=C(C(=O)OCC)[C@@]12C(=O)N(CC(N)=O)c1ccccc12 | 13.4 | 0.116 µM [falling, full curve, poor fit] | – |

Three successive compounds from above, for reference:

| Compound | cell number change [%] | AC50 [1] | AC50 [2] |
| --- | --- | --- | --- |
| COc1ccc(OCC(=O)N2CCN(CC3CC4C=CC3C4)CC2)cc1 (stereo not given) | 18.8 | – | – |
| COc1cc2c(c(OC)c1OC)-c1ccc(O)c(=O)cc1[C@@H](N)CC2 | -31.4 | 0.651 µM [falling, full curve, poor fit] | 0.461 µM [falling, full curve, poor fit] |
| CCN(CC)c1ccc(N=Cc2c(O)n(-c3ccc(Cl)cc3)c(=O)[nH]c2=O)cc1 | 1.3 | – | – |
